Measurements as given in the supplement of paper PMC7666118.
This is one part of the list.

Amino acid sequences for entries named in this document (tags omitted). A change or cut given only in a name is not applied to a line headed by its entry.
UniProt Q9BVP2: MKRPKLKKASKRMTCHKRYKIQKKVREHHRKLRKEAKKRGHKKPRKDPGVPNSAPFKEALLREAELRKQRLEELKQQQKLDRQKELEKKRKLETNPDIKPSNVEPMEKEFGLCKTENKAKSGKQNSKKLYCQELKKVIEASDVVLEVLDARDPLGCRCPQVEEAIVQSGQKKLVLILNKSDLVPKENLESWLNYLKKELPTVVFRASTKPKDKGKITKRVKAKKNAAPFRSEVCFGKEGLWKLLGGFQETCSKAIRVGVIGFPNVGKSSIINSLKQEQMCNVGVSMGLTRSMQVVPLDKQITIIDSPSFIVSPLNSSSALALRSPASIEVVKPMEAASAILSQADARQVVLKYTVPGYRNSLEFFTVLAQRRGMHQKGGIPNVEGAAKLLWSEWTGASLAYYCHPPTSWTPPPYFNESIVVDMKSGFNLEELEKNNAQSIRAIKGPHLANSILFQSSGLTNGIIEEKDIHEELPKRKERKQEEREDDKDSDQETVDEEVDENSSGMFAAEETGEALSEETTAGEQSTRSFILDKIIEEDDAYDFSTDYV
UniProt Q16836: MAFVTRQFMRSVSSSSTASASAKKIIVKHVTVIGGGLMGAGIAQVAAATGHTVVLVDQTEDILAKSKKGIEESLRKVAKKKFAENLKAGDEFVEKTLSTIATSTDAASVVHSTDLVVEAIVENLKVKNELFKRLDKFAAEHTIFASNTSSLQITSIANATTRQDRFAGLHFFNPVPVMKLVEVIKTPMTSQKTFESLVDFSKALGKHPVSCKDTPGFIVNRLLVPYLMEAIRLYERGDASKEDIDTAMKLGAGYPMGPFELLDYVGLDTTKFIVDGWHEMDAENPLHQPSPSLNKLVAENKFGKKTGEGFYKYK
UniProt P16278: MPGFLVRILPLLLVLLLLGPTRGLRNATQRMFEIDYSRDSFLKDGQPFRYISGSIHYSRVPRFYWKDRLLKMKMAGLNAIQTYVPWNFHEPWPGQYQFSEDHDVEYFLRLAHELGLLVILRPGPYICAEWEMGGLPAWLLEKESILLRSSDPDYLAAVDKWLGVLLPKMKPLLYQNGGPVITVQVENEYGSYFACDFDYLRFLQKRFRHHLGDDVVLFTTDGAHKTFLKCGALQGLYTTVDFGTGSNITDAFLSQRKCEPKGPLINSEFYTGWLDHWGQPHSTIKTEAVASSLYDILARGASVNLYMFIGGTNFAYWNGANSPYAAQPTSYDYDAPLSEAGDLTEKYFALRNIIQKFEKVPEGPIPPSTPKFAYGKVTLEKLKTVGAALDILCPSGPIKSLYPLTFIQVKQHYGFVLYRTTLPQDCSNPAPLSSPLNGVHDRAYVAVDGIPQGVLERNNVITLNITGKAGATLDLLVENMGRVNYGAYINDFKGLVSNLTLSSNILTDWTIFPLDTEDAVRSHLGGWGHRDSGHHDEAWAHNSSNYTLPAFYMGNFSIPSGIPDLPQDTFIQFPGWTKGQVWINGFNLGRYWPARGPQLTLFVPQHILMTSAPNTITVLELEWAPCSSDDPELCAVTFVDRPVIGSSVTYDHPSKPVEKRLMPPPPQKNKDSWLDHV
UniProt P78347: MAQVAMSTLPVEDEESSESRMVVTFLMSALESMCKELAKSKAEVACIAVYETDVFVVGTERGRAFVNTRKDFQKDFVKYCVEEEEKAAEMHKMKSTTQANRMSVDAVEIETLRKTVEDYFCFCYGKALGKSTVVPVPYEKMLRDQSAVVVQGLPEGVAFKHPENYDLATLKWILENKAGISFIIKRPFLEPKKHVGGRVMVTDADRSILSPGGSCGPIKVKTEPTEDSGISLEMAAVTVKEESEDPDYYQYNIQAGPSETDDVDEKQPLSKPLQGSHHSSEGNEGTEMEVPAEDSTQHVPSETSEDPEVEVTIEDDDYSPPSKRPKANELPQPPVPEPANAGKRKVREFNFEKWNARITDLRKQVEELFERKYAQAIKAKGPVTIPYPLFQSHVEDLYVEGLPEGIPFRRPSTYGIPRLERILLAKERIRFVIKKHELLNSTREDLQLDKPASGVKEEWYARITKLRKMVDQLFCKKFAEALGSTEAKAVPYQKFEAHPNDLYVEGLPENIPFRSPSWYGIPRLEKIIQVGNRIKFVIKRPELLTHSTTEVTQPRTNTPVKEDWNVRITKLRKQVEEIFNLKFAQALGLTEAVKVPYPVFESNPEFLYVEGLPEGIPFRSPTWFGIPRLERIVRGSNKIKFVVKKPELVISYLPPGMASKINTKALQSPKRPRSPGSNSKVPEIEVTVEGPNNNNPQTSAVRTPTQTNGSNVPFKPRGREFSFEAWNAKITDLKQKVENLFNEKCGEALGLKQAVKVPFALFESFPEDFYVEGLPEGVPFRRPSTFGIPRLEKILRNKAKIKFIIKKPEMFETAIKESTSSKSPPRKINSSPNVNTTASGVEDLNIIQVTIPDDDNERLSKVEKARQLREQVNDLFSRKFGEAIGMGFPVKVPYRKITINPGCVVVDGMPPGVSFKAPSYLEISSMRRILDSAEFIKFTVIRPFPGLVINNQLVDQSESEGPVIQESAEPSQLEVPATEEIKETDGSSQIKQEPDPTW
UniProt P49590: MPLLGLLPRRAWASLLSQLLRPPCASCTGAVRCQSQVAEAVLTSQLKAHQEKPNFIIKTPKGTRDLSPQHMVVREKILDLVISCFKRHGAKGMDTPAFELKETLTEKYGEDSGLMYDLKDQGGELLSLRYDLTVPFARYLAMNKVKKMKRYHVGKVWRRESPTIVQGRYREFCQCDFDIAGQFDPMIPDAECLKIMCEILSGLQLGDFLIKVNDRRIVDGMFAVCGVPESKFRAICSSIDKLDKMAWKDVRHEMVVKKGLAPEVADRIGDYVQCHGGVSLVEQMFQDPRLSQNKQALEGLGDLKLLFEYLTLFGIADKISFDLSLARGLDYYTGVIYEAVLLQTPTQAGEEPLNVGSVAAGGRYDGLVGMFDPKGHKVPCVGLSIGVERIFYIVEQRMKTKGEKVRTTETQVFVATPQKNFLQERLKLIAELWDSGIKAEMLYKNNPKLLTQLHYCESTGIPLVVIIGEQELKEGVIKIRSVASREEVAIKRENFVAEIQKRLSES
UniProt O00461: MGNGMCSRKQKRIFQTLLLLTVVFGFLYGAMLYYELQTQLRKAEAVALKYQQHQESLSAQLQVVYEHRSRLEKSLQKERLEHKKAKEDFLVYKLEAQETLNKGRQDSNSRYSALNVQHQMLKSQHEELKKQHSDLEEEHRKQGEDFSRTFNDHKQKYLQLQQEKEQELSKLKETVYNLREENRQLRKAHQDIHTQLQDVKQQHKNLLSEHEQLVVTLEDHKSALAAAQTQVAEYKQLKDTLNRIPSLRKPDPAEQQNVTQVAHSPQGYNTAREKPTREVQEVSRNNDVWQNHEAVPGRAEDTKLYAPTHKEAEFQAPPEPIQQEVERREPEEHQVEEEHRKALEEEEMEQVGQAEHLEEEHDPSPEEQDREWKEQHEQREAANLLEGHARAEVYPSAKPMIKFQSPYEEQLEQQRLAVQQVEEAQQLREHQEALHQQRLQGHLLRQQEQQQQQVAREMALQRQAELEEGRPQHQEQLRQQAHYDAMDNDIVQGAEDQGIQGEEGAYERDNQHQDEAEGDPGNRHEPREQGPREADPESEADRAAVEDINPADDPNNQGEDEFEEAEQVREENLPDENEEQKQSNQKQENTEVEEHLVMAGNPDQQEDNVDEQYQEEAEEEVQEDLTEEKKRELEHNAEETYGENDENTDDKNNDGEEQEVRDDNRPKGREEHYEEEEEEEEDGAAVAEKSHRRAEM
UniProt Q7Z5G4, whole entry: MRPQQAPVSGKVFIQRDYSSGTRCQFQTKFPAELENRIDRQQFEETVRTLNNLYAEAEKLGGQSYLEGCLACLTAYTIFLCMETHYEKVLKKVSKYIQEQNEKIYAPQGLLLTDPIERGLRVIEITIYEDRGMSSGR
UniProt Q12789: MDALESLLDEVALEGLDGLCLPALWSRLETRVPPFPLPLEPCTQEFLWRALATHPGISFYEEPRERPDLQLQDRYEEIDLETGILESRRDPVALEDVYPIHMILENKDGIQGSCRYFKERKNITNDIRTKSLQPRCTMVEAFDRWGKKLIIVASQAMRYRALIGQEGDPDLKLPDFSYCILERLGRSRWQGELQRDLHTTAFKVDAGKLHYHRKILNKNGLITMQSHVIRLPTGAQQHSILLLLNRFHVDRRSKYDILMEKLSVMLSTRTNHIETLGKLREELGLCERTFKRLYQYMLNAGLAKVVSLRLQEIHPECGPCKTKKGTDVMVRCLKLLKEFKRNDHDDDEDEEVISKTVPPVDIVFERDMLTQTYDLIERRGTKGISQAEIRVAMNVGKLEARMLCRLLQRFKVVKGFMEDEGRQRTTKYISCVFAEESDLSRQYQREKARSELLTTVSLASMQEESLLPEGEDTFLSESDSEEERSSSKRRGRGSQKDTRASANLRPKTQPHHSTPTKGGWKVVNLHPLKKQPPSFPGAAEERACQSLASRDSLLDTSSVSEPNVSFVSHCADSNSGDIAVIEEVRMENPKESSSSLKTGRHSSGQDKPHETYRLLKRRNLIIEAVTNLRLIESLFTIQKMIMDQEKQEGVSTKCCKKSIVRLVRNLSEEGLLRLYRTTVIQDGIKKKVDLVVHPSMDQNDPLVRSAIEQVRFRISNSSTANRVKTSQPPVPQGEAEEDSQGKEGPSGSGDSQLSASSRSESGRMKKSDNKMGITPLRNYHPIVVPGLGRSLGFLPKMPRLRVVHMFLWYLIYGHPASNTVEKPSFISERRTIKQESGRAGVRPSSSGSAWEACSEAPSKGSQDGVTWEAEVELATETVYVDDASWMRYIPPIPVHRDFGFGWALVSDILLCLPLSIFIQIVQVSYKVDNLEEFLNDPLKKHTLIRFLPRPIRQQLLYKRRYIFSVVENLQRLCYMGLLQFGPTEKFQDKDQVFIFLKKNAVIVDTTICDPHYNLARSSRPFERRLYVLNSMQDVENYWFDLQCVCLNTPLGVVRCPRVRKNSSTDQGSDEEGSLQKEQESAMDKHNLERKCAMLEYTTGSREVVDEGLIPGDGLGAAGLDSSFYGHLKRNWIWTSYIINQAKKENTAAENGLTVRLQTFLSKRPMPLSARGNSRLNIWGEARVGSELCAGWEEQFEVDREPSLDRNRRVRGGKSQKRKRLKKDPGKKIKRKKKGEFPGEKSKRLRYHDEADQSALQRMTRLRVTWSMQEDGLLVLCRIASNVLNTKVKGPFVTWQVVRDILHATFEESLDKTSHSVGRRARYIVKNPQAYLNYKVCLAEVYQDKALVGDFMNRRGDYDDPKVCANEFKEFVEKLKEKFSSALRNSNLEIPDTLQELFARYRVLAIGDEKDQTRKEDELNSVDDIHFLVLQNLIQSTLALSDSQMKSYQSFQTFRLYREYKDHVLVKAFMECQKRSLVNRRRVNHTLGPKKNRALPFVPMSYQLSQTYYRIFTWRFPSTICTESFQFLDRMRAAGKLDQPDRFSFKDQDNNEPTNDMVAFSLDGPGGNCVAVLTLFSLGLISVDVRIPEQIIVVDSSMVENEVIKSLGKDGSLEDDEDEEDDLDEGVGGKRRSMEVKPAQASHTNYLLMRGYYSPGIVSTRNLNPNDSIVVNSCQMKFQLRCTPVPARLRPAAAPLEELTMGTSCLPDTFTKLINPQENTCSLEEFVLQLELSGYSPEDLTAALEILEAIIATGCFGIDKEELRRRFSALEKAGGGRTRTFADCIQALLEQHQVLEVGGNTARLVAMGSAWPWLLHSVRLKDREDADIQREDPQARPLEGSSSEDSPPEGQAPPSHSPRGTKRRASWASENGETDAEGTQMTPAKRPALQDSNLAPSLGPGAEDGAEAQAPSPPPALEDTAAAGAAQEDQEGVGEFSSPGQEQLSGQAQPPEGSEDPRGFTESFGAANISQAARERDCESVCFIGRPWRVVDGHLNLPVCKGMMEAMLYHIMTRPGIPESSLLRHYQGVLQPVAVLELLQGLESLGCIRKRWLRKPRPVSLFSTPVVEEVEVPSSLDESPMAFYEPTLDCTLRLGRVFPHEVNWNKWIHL
UniProt P0C0S5, whole entry: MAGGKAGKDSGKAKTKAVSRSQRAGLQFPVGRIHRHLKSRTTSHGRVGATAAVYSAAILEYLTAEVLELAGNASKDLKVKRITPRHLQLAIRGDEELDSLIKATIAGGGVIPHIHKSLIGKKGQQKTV
UniProt Q9P2T1: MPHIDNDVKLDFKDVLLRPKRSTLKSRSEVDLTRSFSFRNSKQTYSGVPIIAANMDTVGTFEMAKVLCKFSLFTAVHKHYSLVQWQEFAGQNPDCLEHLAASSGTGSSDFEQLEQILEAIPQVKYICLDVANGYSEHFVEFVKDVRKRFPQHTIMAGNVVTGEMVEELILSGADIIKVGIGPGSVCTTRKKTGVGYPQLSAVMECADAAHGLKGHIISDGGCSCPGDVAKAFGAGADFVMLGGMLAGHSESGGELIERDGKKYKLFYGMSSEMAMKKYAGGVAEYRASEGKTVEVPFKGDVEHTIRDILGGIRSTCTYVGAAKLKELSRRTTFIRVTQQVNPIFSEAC

Compound: COc1ccc(Cn2ccc3ccc(C(=O)NO)cc32)cc1
Assay: dose-dependent thermal stabilisation call (2D-TPP, DLPTP, 10% FDR) (binary (1 = stabilised)); higher = stabilised by the compound
Settings: system: HL-60 intact cells; concentration range 0.04-10 µM

Target | dose-dependent thermal stabilisation call
GCS1 (UniProt Q13724) | inactive: 0
HIBCH (UniProt Q6NVY1) | inactive: 0
HEXB (UniProt P07686) | inactive: 0
HAGHL (UniProt Q6PII5) | inactive: 0
HECA (UniProt Q9UBI9) | inactive: 0
GPN3 (UniProt Q9UHW5) | inactive: 0
GCC1 (UniProt Q96CN9) | inactive: 0
GNL3 (UniProt Q9BVP2) | inactive: 0
GFER (UniProt P55789) | inactive: 0
HDAC5 (UniProt Q9UQL6) | inactive: 0
HADH (UniProt Q16836) | inactive: 0
HIP1R (UniProt O75146) | inactive: 0
HIST1H1D (UniProt P16402) | inactive: 0
HEXIM1 (UniProt O94992) | inactive: 0
GRAMD4 (UniProt Q6IC98) | inactive: 0
HCG_20857 | inactive: 0
HERPUD1 (UniProt Q15011) | inactive: 0
HEATR5A (UniProt Q86XA9) | inactive: 0
GLB1 (UniProt P16278) | inactive: 0

Copied from the list.
dose-dependent thermal stabilisation call with GCS1 (UniProt Q13724) reads inactive: 0
dose-dependent thermal stabilisation call with HIP1R (UniProt O75146) reads inactive: 0
dose-dependent thermal stabilisation call with GFER (UniProt P55789) reads inactive: 0

(further entries)

Target | dose-dependent thermal stabilisation call
GTF2I (UniProt P78347) | inactive: 0
HAT1 (UniProt O14929) | inactive: 0
GOSR1 (UniProt O95249) | inactive: 0
HECTD1 (UniProt Q9ULT8) | inactive: 0
GEMIN5 (UniProt Q8TEQ6) | inactive: 0
HACL1 (UniProt Q9UJ83) | inactive: 0
GRK6 (UniProt P43250) | inactive: 0
GMEB2 (UniProt Q9UKD1) | inactive: 0
HARS2 (UniProt P49590) | inactive: 0
GOLIM4 (UniProt O00461) | inactive: 0
GOLGA7 (UniProt Q7Z5G4) | inactive: 0
GTF3C1 (UniProt Q12789) | inactive: 0
GLT8D3 (UniProt Q4G148) | inactive: 0
GNAI2 (UniProt P04899) | inactive: 0
H2AFZ (UniProt P0C0S5) | inactive: 0
HIRA (UniProt P54198) | inactive: 0
HEATR6 (UniProt Q6AI08) | inactive: 0
GMPR2 (UniProt Q9P2T1) | inactive: 0
